# The list shows only some results of the screen, not a fair sample: it is rich in T/C values a quarter to a half above the control, in often repeated tests (any T/C) and in doses without a T/C. Further doses and runs are listed elsewhere. T/C gives the treated animals as a percentage of the vehicle group. Some entries give survivors of the animals treated and no T/C: the source holds a T/C of zero for them, seemingly a mark for toxic or unscored doses. Some survivor counts are full or nearly so, which does not show that the dose was tolerated: survival well below the control is almost never listed, so the zero probably covers shortened survival too. Survivors were counted at the toxicity check, usually on the fifth day, unless a day is given; later deaths do not show. Schedule codes are those of the source, taken here to give the interval after Q, in days (D) or hours (H), and the number of doses after X. Some schedules carry Z or #; the key to these is not given. Some entries were tested several times; the results are listed from low to high. Some structures stand for samples that the source files as different forms (salt, stereo form or complex); doses refer to the form tested. Brackets with × count equal records among those shown. For survival time, the PubChem record calls one and a half times the control and up active, and a quarter to a half above the control has no call in these data; cut-offs in other NCI protocols can differ. Some T/C values are followed by the survivors on the day toxicity was checked, most often the fifth; without a count, all were alive then.
# Test system: L1210 leukemia ip in BDF1 mice, survival T/C
# Test: NCI In Vivo Anticancer Drug Screen. Data for tumor model L1210 Leukemia (intraperitoneal) in B6D2F1 (BDF1) mice
# Conditions: T/C endpoint: mean survival time, higher T/C = longer survival
# [1] = dose: 100.0 mg/kg/injection, schedule: Q04DX003 (ip), vehicle: saline with Tween-80
# [2] = dose: 200.0 mg/kg/injection, schedule: Q01DX001 (ip), vehicle: carboxymethylcellulose (CMC)
# [3] = dose: 200.0 mg/kg/injection, schedule: Q04DX003 (ip), vehicle: saline with Tween-80
# [4] = dose: 300.0 mg/kg/injection, schedule: Q01DX001 (ip), vehicle: carboxymethylcellulose (CMC)
# [5] = dose: 100.0 mg/kg/injection, schedule: Q01DX009 (ip), vehicle: saline
# [6] = dose: 400.0 mg/kg/injection, schedule: Q04DX003 (ip), vehicle: saline with Tween-80
compound,measurement,setting,value
ClCCN(CCCl)CCN1c2ccccc2Sc2ccccc21,T/C,"dose: 25.0 mg/kg/injection, schedule: Q01DX001 (ip), vehicle: Klucel (hydroxypropylcellulose) (HPC)",132 % of control
same,survivor count,"dose: 44.0 mg/kg/injection, schedule: Q01DX015 (ip), vehicle: carboxymethylcellulose (CMC)",5 of 6
same,survivor count,"dose: 50.0 mg/kg/injection, schedule: Q01DX001 (ip), vehicle: Klucel (hydroxypropylcellulose) (HPC)",3 of 6
same,survivor count,"dose: 55.0 mg/kg/injection, schedule: Q04DX003 (ip), vehicle: Klucel (hydroxypropylcellulose) (HPC)",5 of 6
same,survivor count,"dose: 66.0 mg/kg/injection, schedule: Q01DX015 (ip), vehicle: carboxymethylcellulose (CMC)",2 of 6
same,survivor count,"dose: 85.0 mg/kg/injection, schedule: Q04DX003 (ip), vehicle: Klucel (hydroxypropylcellulose) (HPC)",6 of 6
same,T/C,"dose: 88.8 mg/kg/injection, schedule: Q01DX001 (ip), vehicle: carboxymethylcellulose (CMC)",127 % of control
same,survivor count,"dose: 100.0 mg/kg/injection, schedule: Q01DX015 (ip), vehicle: carboxymethylcellulose (CMC)",1 of 6
same,survivor count,[1],6 of 6
same,survivor count,"dose: 125.0 mg/kg/injection, schedule: Q04DX003 (ip), vehicle: Klucel (hydroxypropylcellulose) (HPC)",1 of 6 and 6 of 6
same,survivor count,"dose: 200.0 mg/kg/injection, schedule: Q01DX001 (ip), vehicle: Klucel (hydroxypropylcellulose) (HPC)",2 of 6
same,T/C,[2],125 [3 of 4 alive] and 129 % of control
same,survivor count,[2],2 of 6
same,survivor count,[3],6 of 6
same,T/C,[4],141 % of control
same,survivor count,[4],1 of 4
same,survivor count,"dose: 400.0 mg/kg/injection, schedule: Q01DX001 (ip), vehicle: Klucel (hydroxypropylcellulose) (HPC)",1 of 6
same,survivor count,"dose: 400.0 mg/kg/injection, schedule: Q01DX001 (ip), vehicle: carboxymethylcellulose (CMC)",0 of 4
COc1ccc([I+]c2ccc(OC)cc2)cc1,survivor count,"dose: 25.0 mg/kg/injection, schedule: Q01DX009 (ip), vehicle: saline",6 of 6
same,survivor count,"dose: 50.0 mg/kg/injection, schedule: Q01DX009 (ip), vehicle: saline",2 of 6
same,survivor count,[5],0 of 6
same,survivor count,[1],2 of 6
same,survivor count,"dose: 200.0 mg/kg/injection, schedule: Q04DX003 (ip), vehicle: acetone",1 of 6
same,survivor count,[3],0 of 6
same,survivor count,"dose: 400.0 mg/kg/injection, schedule: Q01DX001 (ip), vehicle: saline",1 of 6
same,survivor count,[6],0 of 6
Cc1ccc(C(=O)C[S+](C)C)c(C)c1,survivor count,[5],2 of 6
same,survivor count,[3],1 of 6
same,survivor count,[6],2 of 6
COc1ccc(C2C3CCC(C3)C2N)cc1 (stereo unspecified),survivor count,"dose: 40.0 mg/kg/injection, schedule: Q01DX009 (ip), vehicle: saline with Tween-80",0 of 6
same,survivor count,[1],0 of 6
same,survivor count,[3],0 of 6 (2×)
same,survivor count,[6],0 of 6 (2×)
Nc1ncnc2c1ccn2C1CCCC1,survivor count,[2],0 of 4
CN(C)CC(=O)c1ccc(O)c(O)c1,T/C,"dose: 59.0 mg/kg/injection, schedule: Q01DX Z (ip), vehicle: saline",126 % of control
same,T/C,"dose: 66.5 mg/kg/injection, schedule: Q#A X Z (ip), vehicle: saline",146 % of control
same,T/C,"dose: 89.0 mg/kg/injection, schedule: Q01DX Z (ip), vehicle: saline",129 % of control
same,T/C,"dose: 100.0 mg/kg/injection, schedule: Q#A X Z (ip), vehicle: saline",137 % of control
same,T/C,"dose: 150.0 mg/kg/injection, schedule: Q01DX010 (ip), vehicle: saline",138 and 140 % of control
same,T/C,"dose: 150.0 mg/kg/injection, schedule: Q01DX Z (ip), vehicle: clinical formulation",125 % of control
same,T/C,"dose: 200.0 mg/kg/injection, schedule: Q01DX Z (ip), vehicle: carboxymethylcellulose (CMC)",133 % of control
same,T/C,"dose: 200.0 mg/kg/injection, schedule: Q01DX Z (ip), vehicle: saline","128, 130, 133 % of control"
same,T/C,"dose: 225.0 mg/kg/injection, schedule: Q#A X Z (ip), vehicle: saline",132 % of control
same,T/C,"dose: 300.0 mg/kg/injection, schedule: Q01DX010 (ip), vehicle: saline",127 and 140 % of control
same,T/C,"dose: 300.0 mg/kg/injection, schedule: Q01DX Z (ip), vehicle: carboxymethylcellulose (CMC)",133 and 135 % of control [5 of 6 alive]
same,T/C,"dose: 300.0 mg/kg/injection, schedule: Q01DX Z (ip), vehicle: clinical formulation",127 % of control
same,T/C,"dose: 300.0 mg/kg/injection, schedule: Q01DX Z (ip), vehicle: saline",132 % of control
same,survivor count,"dose: 337.5 mg/kg/injection, schedule: Q#A X Z (ip), vehicle: saline",0 of 6
same,survivor count,"dose: 450.0 mg/kg/injection, schedule: Q01DX007 (iv), vehicle: saline",0 of 6
same,T/C,"dose: 450.0 mg/kg/injection, schedule: Q01DX Z (ip), vehicle: carboxymethylcellulose (CMC)",130 % of control
same,T/C,"dose: 450.0 mg/kg/injection, schedule: Q01DX Z (ip), vehicle: saline",127 % of control
same,T/C,"dose: 532.0 mg/kg/injection, schedule: Q01DX Z (ip), vehicle: carboxymethylcellulose (CMC)",143 % of control
same,T/C,"dose: 600.0 mg/kg/injection, schedule: Q01DX010 (ip), vehicle: saline",145 and 147 % of control
same,T/C,"dose: 600.0 mg/kg/injection, schedule: Q01DX Z (ip), vehicle: carboxymethylcellulose (CMC)",131 % of control
same,T/C,"dose: 600.0 mg/kg/injection, schedule: Q01DX Z (ip), vehicle: clinical formulation",136 and 137 % of control
same,T/C,"dose: 600.0 mg/kg/injection, schedule: Q01DX Z (ip), vehicle: water",130 % of control [5 of 6 alive]
same,survivor count,"dose: 675.0 mg/kg/injection, schedule: Q01DX007 (iv), vehicle: saline",0 of 6
same,T/C,"dose: 675.0 mg/kg/injection, schedule: Q01DX Z (ip), vehicle: carboxymethylcellulose (CMC)",147 % of control
same,survivor count,"dose: 675.0 mg/kg/injection, schedule: Q01DX Z (ip), vehicle: saline",1 of 6 and 6 of 6
same,T/C,"dose: 800.0 mg/kg/injection, schedule: Q01DX Z (ip), vehicle: carboxymethylcellulose (CMC)",145 % of control
same,survivor count,"dose: 800.0 mg/kg/injection, schedule: Q01DX Z (ip), vehicle: clinical formulation",3 of 6
same,survivor count,"dose: 900.0 mg/kg/injection, schedule: Q03DX Z (ip), vehicle: saline",0 of 6 and 3 of 6
same,survivor count,"dose: 1200.0 mg/kg/injection, schedule: Q01DX Z (ip), vehicle: carboxymethylcellulose (CMC)",0 of 6 and 2 of 6
same,survivor count,"dose: 1200.0 mg/kg/injection, schedule: Q01DX Z (ip), vehicle: clinical formulation",0 of 6
same,survivor count,"dose: 1350.0 mg/kg/injection, schedule: Q03DX Z (ip), vehicle: saline",0 of 6 and 2 of 6
same,survivor count,"dose: 1400.0 mg/kg/injection, schedule: Q07DX Z (ip), vehicle: saline",1 of 6 and 6 of 6
same,survivor count,"dose: 1800.0 mg/kg/injection, schedule: Q01DX Z (oral), vehicle: saline",3 of 6
same,survivor count,"dose: 2025.0 mg/kg/injection, schedule: Q03DX Z (ip), vehicle: saline",0 of 6
same,survivor count,"dose: 2100.0 mg/kg/injection, schedule: Q07DX Z (ip), vehicle: saline",0 of 6 and 6 of 6
same,survivor count,"dose: 2700.0 mg/kg/injection, schedule: Q01DX Z (oral), vehicle: saline",2 of 6
same,survivor count,"dose: 3150.0 mg/kg/injection, schedule: Q07DX Z (ip), vehicle: saline",0 of 6 and 6 of 6

# From PubChem BioAssay AID248 (DTP/NCI, 2004)
